Experimental data from PMC6179184, “Interaction of the Warsaw breakage syndrome DNA helicase DDX11 with the replication fork-protection factor Timeless promotes sister chromatid cohesion” (PLoS Genetics, 2018).
Substitutions are numbered along the chain they refer to. No constants are given. Whether binding was seen depends on the method and setting. Binding seen in cells or lysates may run through a third protein. Some entries that bind do so weakly or less than the wild type. Sequences can lack the tags named with a protein.

Experiments:
Assay in all cases: co-IP; whole cell extracts of HEK 293T cells transiently expressing DDX11-3xFlag (wild type or mutants), anti-Flag M2 agarose beads, 50 mM Tris-HCl pH 8.0, 150 mM NaCl, 0.25% Triton X-100, 10% glycerol, 2 hr at 4 C, elution with Flag peptide; Western blot of endogenous partners
[1] = target: T1, DDX11-3xFlag KAE mutant (human) (UniProt Q96FC9)
T1 sequence: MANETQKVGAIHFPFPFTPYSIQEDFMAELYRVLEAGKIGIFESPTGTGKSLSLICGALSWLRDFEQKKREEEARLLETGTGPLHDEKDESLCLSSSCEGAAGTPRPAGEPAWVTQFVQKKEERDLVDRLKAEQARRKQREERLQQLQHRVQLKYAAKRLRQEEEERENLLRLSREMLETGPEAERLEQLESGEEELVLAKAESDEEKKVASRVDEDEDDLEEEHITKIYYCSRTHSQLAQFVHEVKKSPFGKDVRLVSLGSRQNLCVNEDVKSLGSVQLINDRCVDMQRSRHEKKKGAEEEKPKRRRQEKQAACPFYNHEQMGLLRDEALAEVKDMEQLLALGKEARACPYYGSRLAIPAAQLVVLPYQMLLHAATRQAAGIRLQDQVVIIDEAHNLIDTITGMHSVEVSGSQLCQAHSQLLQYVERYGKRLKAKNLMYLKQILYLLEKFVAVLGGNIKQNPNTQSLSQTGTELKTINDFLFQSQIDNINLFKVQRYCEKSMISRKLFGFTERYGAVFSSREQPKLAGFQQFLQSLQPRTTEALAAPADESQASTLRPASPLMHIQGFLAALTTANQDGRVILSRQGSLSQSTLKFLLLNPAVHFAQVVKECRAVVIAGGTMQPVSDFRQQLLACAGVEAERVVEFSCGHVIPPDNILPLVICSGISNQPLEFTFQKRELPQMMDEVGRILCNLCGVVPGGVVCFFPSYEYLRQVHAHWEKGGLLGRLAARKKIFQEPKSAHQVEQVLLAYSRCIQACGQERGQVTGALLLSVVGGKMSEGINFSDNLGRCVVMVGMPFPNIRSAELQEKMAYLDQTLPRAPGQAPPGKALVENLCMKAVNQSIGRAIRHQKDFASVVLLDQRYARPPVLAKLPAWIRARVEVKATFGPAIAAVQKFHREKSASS

[2] = target: T2, DDX11-3xFlag Q23A mutant (human) (UniProt Q96FC9)
T2 sequence: T1 sequence with Q23A, K201E, A202Y

[3] = target: T3, DDX11-3xFlag wild type (human) (UniProt Q96FC9)
T3 sequence: T1 sequence with K201E, A202Y

Measured: binding

B1: endogenous WDHD1 (HEK 293T) (protein, UniProt O75717 1-1129)
chain: MPATRKPMRYGHTEGHTEVCFDDSGSFIVTCGSDGDVRIWEDLDDDDPKFINVGEKAYSCALKSGKLVTAVSNNTIQVHTFPEGVPDGILTRFTTNANHVVFNGDGTKIAAGSSDFLVKIVDVMDSSQQKTFRGHDAPVLSLSFDPKDIFLASASCDGSVRVWQISDQTCAISWPLLQKCNDVINAKSICRLAWQPKSGKLLAIPVEKSVKLYRRESWSHQFDLSDNFISQTLNIVTWSPCGQYLAAGSINGLIIVWNVETKDCMERVKHEKGYAICGLAWHPTCGRISYTDAEGNLGLLENVCDPSGKTSSSKVSSRVEKDYNDLFDGDDMSNAGDFLNDNAVEIPSFSKGIINDDEDDEDLMMASGRPRQRSHILEDDENSVDISMLKTGSSLLKEEEEDGQEGSIHNLPLVTSQRPFYDGPMPTPRQKPFQSGSTPLHLTHRFMVWNSIGIIRCYNDEQDNAIDVEFHDTSIHHATHLSNTLNYTIADLSHEAILLACESTDELASKLHCLHFSSWDSSKEWIIDLPQNEDIEAICLGQGWAAAATSALLLRLFTIGGVQKEVFSLAGPVVSMAGHGEQLFIVYHRGTGFDGDQCLGVQLLELGKKKKQILHGDPLPLTRKSYLAWIGFSAEGTPCYVDSEGIVRMLNRGLGNTWTPICNTREHCKGKSDHYWVVGIHENPQQLRCIPCKGSRFPPTLPRPAVAILSFKLPYCQIATEKGQMEEQFWRSVIFHNHLDYLAKNGYEYEESTKNQATKEQQELLMKMLALSCKLEREFRCVELADLMTQNAVNLAIKYASRSRKLILAQKLSELAVEKAAELTATQVEEEEEEEDFRKKLNAGYSNTATEWSQPRFRNQVEEDAEDSGEADDEEKPEIHKPGQNSFSKSTNSSDVSAKSGAVTFSSQGRVNPFKVSASSKEPAMSMNSARSTNILDNMGKSSKKSTALSRTTNNEKSPIIKPLIPKPKPKQASAASYFQKRNSQTNKTEEVKEENLKNVLSETPAICPPQNTENQRPKTGFQMWLEENRSNILSDNPDFSDEADIIKEGMIRFRVLSTEERKVWANKAKGETASEGTEAKKRKRVVDESDETENQEEKAKENLNLSKKQKPLDFSTNQKLSAFAFKQE
binds: all assays above

B2: endogenous Cdc45 (HEK 293T) (protein, UniProt O75419 1-566)
chain: MFVSDFRKEFYEVVQSQRVLLFVASDVDALCACKILQALFQCDHVQYTLVPVSGWQELETAFLEHKEQFHYFILINCGANVDLLDILQPDEDTIFFVCDTHRPVNVVNVYNDTQIKLLIKQDDDLEVPAYEDIFRDEEEDEEHSGNDSDGSEPSEKRTRLEEEIVEQTMRRRQRREWEARRRDILFDYEQYEYHGTSSAMVMFELAWMLSKDLNDMLWWAIVGLTDQWVQDKITQMKYVTDVGVLQRHVSRHNHRNEDEENTLSVDCTRISFEYDLRLVLYQHWSLHDSLCNTSYTAARFKLWSVHGQKRLQEFLADMGLPLKQVKQKFQAMDISLKENLREMIEESANKFGMKDMRVQTFSIHFGFKHKFLASDVVFATMSLMESPEKDGSGTDHFIQALDSLSRSNLDKLYHGLELAKKQLRATQQTIASCLCTNLVISQGPFLYCSLMEGTPDVMLFSRPASLSLLSKHLLKSFVCSTKNRRCKLLPLVMAAPLSMEHGTVTVVGIPPETDSSDRKNFFGRAFEKAAESTSSRMLHNHFDLSVIELKAEDRSKFLDALISLLS
binds: all assays above
